According to PMC9270653:
No constants are given. Whether binding was seen depends on the method and setting. In cells and extracts the contact can be indirect. Some entries that bind do so weakly or less than the wild type.

Protein sequences, listed by entry. Tags and fused reporters are not part of them.
UniProt Q8K019: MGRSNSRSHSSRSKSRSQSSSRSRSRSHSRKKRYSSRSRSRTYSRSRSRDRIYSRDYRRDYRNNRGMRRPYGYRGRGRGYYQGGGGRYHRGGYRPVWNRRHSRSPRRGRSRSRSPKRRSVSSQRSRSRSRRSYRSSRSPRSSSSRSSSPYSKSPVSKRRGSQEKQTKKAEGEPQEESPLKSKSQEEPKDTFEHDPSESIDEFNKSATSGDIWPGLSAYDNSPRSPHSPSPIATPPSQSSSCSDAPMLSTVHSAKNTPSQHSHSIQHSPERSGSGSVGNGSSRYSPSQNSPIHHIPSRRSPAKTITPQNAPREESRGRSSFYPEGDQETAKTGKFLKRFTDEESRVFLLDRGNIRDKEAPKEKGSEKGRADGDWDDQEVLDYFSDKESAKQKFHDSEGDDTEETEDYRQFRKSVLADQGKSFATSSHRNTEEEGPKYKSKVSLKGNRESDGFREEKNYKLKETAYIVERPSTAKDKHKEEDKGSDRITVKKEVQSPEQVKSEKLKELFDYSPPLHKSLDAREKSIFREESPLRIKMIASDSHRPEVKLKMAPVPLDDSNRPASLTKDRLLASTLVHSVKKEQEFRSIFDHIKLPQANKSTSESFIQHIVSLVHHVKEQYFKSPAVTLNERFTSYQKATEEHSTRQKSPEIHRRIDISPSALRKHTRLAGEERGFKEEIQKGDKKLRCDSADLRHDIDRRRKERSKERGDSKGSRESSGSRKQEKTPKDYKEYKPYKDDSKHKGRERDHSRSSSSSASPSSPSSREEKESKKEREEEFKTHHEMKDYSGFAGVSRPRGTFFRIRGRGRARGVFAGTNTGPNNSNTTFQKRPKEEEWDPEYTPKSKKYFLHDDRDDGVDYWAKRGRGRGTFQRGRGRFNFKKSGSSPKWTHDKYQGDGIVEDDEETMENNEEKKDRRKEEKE

Biological target: T1, Thrap3 (mouse (endogenous in mESCs)) (UniProt Q569Z6)
T1 sequence: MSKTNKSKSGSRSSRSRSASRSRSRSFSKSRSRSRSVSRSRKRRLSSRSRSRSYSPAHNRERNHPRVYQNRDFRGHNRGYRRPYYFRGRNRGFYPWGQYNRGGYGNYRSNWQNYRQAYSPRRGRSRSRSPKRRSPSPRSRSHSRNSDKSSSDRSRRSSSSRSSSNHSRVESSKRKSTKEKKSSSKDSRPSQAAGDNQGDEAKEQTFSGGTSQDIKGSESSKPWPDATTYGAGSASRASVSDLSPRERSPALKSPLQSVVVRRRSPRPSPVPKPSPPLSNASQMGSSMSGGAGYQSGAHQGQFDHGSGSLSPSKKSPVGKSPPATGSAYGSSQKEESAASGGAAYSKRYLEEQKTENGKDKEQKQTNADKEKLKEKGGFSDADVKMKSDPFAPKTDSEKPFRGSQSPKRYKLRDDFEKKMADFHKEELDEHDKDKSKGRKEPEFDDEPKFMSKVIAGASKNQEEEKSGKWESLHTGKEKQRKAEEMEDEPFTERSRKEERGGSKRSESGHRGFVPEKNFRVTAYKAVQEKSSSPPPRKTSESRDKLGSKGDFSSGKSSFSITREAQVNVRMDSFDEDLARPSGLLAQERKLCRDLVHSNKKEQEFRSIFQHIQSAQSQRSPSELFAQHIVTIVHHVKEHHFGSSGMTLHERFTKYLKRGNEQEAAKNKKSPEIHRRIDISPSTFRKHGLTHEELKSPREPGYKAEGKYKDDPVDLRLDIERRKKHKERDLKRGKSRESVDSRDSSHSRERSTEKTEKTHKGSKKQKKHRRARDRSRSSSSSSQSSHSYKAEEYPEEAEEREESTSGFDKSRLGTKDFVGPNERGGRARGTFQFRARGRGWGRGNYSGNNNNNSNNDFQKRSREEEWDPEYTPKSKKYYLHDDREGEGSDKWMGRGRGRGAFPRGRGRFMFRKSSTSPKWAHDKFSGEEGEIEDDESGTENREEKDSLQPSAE
Assay: cross-linking; DSSO 1 mM (experiments 1-4) or 5 mM (experiment 5), 1 h at RT, on the anti-Arid1a immunoprecipitate from mESC nuclear lysate while still on the beads; IP at 150 mM NaCl (450 mM in experiment 4); MS3 mass spectrometry, XlinkX, 1% FDR; five experiments

binding: binds
Substance: Bclaf1 (from UniProt Q8K019 1-919)
